Literature values in patent EP2773641B1, “BIARYL ETHER SULFONAMIDES AND THEIR USE AS THERAPEUTIC AGENTS” (Xenon Pharmaceuticals Inc., priority 2011, dated 2013).

Details: administered topically (Lidoderm patch); cited from earlier work

## CCN(CC)CC(=O)Nc1c(C)cccc1C [Lidocaine, lidocaine]
  plasma concentrations: about 1 µM
